The record followed here is publication PMC5059142.

These are yes or no findings as the source states them, for the method shown. Binding seen in cells or lysates may run through a third protein. Some results given as binding are weak or reduced against the parent protein; the word gives no strength. Where a sequence is shown, tags or fusion partners need not be part of it.

The target in test [1] is T1, hTXNIP C247S-flag (human) (UniProt Q9H3M7).
T1 sequence: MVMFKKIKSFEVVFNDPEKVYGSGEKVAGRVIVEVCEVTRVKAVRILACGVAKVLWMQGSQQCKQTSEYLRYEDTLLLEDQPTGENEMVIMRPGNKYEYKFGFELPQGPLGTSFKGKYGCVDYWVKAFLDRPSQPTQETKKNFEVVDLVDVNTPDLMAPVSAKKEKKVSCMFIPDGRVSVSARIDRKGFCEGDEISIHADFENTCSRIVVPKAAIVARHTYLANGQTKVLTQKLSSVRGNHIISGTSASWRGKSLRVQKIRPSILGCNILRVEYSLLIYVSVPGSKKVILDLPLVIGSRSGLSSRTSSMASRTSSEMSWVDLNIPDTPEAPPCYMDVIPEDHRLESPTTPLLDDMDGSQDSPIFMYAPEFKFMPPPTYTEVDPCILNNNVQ
The test can be described thus: co-IP; TXNIP-V5 or C247S-flag co-expressed with hGLUT2 or hGLUT5; lysis in 0.5% Triton X-100, 0.1% sodium deoxycholate, 150 mM NaCl, 50 mM Tris, pH 7.8; Txnip protein complexes immunoprecipitated with antibodies and Protein A/G agarose beads; immunoblot.

For test [2], the target named is T2, hTXNIP-V5 (human thioredoxin-interacting protein) (human) (UniProt Q9H3M7).
T2 sequence: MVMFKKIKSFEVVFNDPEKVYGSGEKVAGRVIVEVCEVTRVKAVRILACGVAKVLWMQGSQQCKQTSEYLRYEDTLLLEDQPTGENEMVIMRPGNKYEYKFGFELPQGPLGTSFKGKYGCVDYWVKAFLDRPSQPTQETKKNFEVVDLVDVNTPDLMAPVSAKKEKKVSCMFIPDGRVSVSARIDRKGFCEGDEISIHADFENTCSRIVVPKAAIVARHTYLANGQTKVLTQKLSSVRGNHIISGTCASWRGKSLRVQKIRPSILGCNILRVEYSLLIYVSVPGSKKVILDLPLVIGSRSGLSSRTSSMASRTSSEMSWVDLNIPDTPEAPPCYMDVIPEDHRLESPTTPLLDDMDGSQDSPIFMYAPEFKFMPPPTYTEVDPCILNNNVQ
Described as above.

B1: hGLUT5 (human glucose transporter 5) (protein, UniProt P22732 1-501)
chain: MEQQDQSMKEGRLTLVLALATLIAAFGSSFQYGYNVAAVNSPALLMQQFYNETYYGRTGEFMEDFPLTLLWSVTVSMFPFGGFIGSLLVGPLVNKFGRKGALLFNNIFSIVPAILMGCSRVATSFELIIISRLLVGICAGVSSNVVPMYLGELAPKNLRGALGVVPQLFITVGILVAQIFGLRNLLANVDGWPILLGLTGVPAALQLLLLPFFPESPRYLLIQKKDEAAAKKALQTLRGWDSVDREVAEIRQEDEAEKAAGFISVLKLFRMRSLRWQLLSIIVLMGGQQLSGVNAIYYYADQIYLSAGVPEEHVQYVTAGTGAVNVVMTFCAVFVVELLGRRLLLLLGFSICLIACCVLTAALALQDTVSWMPYISIVCVISYVIGHALGPSPIPALLITEIFLQSSRPSAFMVGGSVHWLSNFTVGLIFPFIQEGLGPYSFIVFAVICLLTTIYIFLIVPETKAKTFIEINQIFTKMNKVSEVYPEKEELKELPPVTSEQ
B1: the binding entry in test [1] and in test [2] was “binds” each time.
